± gives the standard deviation of the averaged measurements. Some of the results follow. The list holds hits alone, and they repeat only in part.
What was measured:
Test in all cases: PRISMA enrichment of interactor (LFQ) in peptide spot vs all other peptide spots (log2 fold change); higher = stronger / more specific binding of the interactor to the peptide
PWP1, Q13610 = target: PWP1, Q13610
Procedure: (§1)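 PRISMA: 15-aa overlapping tiles (offset 8 aa) of 60 microproteins, plus SOS1/GLUT1 control peptides, were spot-synthesized on cellulose membranes in triplicate. Membranes were incubated with benzonase-treated HEK293T lysate, and bound proteins were identified by LC-MS/MS with LFQ. Enrichment is the log2 fold change of each protein in one spot versus all other spots. Only interactors passing the significance cutoff are listed.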

Chains of the proteins cited; added tags and fusions are not shown.
TWF1, Q12792, UniProt Q12792, whole entry: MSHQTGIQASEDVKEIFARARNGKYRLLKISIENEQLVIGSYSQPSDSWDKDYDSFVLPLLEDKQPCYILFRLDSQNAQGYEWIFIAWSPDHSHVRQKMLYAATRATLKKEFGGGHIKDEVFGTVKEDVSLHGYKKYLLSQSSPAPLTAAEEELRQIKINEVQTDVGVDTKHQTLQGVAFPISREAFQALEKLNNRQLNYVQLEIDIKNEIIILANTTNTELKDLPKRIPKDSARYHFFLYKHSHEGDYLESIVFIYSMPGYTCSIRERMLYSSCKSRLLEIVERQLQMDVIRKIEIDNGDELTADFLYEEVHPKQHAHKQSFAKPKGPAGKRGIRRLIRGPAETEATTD
CDC20, Q12834, UniProt Q12834, whole entry: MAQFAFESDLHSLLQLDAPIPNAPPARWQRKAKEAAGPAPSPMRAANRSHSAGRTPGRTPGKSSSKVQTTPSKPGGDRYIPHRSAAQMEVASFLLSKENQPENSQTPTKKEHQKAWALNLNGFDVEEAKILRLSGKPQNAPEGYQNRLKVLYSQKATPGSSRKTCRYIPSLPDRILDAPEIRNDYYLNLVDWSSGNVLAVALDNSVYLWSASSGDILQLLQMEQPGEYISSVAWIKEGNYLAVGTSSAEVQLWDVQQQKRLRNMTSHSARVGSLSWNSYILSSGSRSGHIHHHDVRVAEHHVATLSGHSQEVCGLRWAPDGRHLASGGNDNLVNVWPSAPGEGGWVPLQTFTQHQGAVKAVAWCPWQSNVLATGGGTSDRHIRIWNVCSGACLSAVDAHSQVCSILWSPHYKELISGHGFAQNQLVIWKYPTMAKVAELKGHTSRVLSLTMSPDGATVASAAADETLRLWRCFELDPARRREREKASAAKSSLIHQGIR
EIF3M, Q7L2H7, UniProt Q7L2H7, whole entry: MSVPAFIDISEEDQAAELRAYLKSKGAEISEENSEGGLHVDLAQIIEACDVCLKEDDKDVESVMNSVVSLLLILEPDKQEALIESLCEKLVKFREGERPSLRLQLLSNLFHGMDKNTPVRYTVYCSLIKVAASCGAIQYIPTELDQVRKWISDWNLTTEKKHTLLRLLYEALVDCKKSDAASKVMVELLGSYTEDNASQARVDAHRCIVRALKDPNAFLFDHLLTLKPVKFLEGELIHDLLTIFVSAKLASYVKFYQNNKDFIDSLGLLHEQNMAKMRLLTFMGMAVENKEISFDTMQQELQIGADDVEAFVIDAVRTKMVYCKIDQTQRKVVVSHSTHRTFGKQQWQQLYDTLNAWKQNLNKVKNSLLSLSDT
EIF4B, P23588, UniProt P23588, whole entry: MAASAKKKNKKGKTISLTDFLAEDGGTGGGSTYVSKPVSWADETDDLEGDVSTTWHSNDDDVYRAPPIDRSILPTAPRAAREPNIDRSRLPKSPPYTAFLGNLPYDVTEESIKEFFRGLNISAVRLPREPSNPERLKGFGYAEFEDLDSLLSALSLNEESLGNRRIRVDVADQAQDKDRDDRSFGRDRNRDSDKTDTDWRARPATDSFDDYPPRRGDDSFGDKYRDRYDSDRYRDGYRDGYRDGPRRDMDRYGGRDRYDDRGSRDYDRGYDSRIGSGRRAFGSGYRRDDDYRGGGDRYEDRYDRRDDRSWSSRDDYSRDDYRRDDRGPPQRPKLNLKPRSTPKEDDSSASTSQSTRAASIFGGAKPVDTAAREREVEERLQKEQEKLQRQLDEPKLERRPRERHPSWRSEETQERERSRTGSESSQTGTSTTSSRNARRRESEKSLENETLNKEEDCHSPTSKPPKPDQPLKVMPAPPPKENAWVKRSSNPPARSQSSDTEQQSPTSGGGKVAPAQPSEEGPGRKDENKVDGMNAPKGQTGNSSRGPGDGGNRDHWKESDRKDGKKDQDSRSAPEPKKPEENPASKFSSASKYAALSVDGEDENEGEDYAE
INTS7, Q9NVH2, UniProt Q9NVH2, whole entry: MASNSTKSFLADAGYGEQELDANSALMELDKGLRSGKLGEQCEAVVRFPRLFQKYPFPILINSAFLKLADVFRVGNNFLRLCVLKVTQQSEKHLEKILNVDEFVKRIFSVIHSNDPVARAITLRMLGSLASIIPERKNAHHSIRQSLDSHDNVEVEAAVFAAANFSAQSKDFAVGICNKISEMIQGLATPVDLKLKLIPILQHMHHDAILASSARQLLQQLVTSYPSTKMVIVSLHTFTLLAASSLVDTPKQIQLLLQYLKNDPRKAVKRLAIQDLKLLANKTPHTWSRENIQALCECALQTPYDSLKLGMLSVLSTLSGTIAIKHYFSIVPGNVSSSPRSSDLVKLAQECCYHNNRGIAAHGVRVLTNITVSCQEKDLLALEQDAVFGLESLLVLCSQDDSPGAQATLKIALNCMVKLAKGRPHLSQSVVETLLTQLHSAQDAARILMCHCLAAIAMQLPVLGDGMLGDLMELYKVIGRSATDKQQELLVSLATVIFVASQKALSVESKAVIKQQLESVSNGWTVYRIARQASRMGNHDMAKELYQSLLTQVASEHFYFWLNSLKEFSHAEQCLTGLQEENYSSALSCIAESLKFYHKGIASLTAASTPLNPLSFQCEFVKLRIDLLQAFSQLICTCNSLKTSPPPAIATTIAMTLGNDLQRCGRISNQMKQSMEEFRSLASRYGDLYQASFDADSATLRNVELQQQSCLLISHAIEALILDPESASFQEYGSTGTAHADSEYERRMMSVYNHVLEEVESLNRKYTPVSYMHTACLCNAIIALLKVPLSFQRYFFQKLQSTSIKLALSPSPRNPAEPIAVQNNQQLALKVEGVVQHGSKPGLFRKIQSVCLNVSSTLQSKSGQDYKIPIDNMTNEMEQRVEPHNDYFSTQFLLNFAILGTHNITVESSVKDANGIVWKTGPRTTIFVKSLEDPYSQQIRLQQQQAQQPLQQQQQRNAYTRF
MYO6, Q9UM54, UniProt Q9UM54, whole entry: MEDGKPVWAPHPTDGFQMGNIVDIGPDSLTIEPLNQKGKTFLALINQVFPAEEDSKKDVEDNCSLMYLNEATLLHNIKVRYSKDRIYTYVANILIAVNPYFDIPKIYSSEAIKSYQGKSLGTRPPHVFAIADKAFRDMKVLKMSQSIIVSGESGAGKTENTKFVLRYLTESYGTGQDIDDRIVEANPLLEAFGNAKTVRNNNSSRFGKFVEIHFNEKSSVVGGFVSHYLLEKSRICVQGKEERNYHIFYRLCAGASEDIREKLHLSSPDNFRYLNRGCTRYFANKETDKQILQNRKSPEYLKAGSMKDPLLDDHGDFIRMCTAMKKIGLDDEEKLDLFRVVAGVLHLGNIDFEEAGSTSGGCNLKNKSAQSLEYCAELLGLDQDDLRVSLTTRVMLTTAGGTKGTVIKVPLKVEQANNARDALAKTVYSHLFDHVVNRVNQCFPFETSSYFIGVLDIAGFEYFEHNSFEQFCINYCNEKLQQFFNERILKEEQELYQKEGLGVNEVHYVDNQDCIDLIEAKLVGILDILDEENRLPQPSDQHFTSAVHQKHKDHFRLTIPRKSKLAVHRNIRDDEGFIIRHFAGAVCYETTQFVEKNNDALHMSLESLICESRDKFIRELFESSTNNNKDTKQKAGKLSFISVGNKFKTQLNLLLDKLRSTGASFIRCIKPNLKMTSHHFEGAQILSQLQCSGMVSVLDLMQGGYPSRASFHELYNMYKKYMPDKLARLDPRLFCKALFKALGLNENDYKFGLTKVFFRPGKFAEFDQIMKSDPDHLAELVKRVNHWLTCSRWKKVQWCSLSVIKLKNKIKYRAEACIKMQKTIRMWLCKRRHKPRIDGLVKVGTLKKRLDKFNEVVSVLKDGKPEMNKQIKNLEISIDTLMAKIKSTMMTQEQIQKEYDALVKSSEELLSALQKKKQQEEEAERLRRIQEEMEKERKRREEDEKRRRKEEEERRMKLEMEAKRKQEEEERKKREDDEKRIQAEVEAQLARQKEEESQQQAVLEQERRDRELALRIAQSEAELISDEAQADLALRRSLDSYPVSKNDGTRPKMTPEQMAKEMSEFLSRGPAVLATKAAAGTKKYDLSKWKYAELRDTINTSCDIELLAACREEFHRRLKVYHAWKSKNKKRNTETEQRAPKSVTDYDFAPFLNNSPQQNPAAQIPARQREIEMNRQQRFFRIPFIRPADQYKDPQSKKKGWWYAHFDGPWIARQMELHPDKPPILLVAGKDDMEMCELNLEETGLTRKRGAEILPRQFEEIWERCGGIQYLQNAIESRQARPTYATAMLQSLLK
NUDT21, O43809, UniProt O43809, whole entry: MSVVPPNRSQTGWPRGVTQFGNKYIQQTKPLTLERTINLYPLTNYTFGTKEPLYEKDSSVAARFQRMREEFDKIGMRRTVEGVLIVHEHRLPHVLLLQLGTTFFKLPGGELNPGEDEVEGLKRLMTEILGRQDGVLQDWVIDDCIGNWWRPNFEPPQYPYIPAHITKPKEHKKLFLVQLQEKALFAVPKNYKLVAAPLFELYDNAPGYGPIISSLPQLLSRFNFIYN
RADX, Q6NSI4, UniProt Q6NSI4, whole entry: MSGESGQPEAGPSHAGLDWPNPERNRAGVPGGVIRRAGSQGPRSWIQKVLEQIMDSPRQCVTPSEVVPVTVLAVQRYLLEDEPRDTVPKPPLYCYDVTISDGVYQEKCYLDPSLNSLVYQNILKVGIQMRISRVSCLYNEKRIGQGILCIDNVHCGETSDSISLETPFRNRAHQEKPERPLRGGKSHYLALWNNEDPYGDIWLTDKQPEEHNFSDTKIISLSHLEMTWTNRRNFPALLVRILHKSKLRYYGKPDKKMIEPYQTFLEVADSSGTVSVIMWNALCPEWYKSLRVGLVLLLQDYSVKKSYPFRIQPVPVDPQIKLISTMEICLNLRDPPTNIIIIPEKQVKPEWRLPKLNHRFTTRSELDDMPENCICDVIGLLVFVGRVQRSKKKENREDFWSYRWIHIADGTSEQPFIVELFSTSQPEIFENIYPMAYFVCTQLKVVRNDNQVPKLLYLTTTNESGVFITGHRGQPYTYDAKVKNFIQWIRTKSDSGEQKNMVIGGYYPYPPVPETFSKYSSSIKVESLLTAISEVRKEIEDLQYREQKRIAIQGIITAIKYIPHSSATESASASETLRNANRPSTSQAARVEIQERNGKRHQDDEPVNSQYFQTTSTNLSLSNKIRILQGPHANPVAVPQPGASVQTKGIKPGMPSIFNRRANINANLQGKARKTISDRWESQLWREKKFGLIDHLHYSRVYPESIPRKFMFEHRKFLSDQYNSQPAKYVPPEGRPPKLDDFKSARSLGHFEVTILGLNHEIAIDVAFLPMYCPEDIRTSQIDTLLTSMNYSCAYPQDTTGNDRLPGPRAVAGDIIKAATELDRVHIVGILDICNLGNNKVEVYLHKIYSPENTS

RBM4, Q9BWF3 = target: RBM4, Q9BWF3
Procedure: as §1

RBM6, P78332 = target: RBM6, P78332
Procedure: as §1

RNF138, Q8WVD3 = target: RNF138, Q8WVD3
Procedure: as §1

RPUSD3, Q6P087 = target: RPUSD3, Q6P087
Procedure: as §1

[1] = substrate: SON, P18583
Procedure: as §1

TMEM201, Q5SNT2 = target: TMEM201, Q5SNT2
Procedure: as §1

TWF1, Q12792 = target: TWF1, Q12792
Procedure: as §1

VCL, P18206 = target: VCL, P18206
Procedure: as §1

WDR11, Q9BZH6 = target: WDR11, Q9BZH6
Procedure: as §1

C7orf50, Q9BRJ6 = target: C7orf50, Q9BRJ6
Procedure: as §1

CD81, P60033 = target: CD81, P60033
Procedure: as §1

CDC20, Q12834 = target: CDC20, Q12834
Procedure: as §1

CSTF3, Q12996 = target: CSTF3, Q12996
Procedure: as §1

DHX15, O43143 = target: DHX15, O43143
Procedure: as §1

EIF3M, Q7L2H7 = target: EIF3M, Q7L2H7
Procedure: as §1

EIF4B, P23588 = target: EIF4B, P23588
Procedure: as §1

EXOC4, Q96A65 = target: EXOC4, Q96A65
Procedure: as §1

GOT2, P00505 = target: GOT2, P00505
Procedure: as §1

INTS7, Q9NVH2 = target: INTS7, Q9NVH2
Procedure: as §1

MRM2, Q9UI43 = target: MRM2, Q9UI43
Procedure: as §1

MRPL16, Q9NX20 = target: MRPL16, Q9NX20
Procedure: as §1

MYO6, Q9UM54 = target: MYO6, Q9UM54
Procedure: as §1

NAP1L1, P55209 = target: NAP1L1, P55209
Procedure: as §1

NUDT21, O43809 = target: NUDT21, O43809
Procedure: as §1

PGAM1, P18669 = target: PGAM1, P18669
Procedure: as §1

RADX, Q6NSI4 = target: RADX, Q6NSI4
Procedure: as §1

S100A13, Q99584 = target: S100A13, Q99584
Procedure: as §1

SREK1, Q8WXA9 = target: SREK1, Q8WXA9
Procedure: as §1

WDR12, Q9GZL7 = target: WDR12, Q9GZL7
Procedure: as §1

YIF1A, O95070 = target: YIF1A, O95070
Procedure: as §1

C1QBP, Q07021 = target: C1QBP, Q07021
Procedure: as §1

MED15, Q96RN5 = target: MED15, Q96RN5
Procedure: as §1

RPUSD4, Q96CM3 = target: RPUSD4, Q96CM3
Procedure: as §1

CCDC77, Q9BR77 = target: CCDC77, Q9BR77
Procedure: as §1

CIAO1, O76071 = target: CIAO1, O76071
Procedure: as §1

RNF219, Q5W0B1 = target: RNF219, Q5W0B1
Procedure: as §1

MNALASLTVRTCDRF [PPP1R15A]
PRISMA enrichment of interactor (log2) (PWP1, Q13610): 4.68 | PRISMA enrichment of interactor (log2) (RBM4, Q9BWF3): 5.09 | PRISMA enrichment of interactor (log2) (RBM6, P78332): 5.16 | PRISMA enrichment of interactor (log2) (RNF138, Q8WVD3): 3.81 | PRISMA enrichment of interactor (log2) (RPUSD3, Q6P087): 7.87 | PRISMA enrichment of interactor (log2) [1]: 6.37 | PRISMA enrichment of interactor (log2) (TMEM201, Q5SNT2): 3.96 | PRISMA enrichment of interactor (log2) (TWF1, Q12792): 4.67 | PRISMA enrichment of interactor (log2) (VCL, P18206): 4.11 | PRISMA enrichment of interactor (log2) (WDR11, Q9BZH6): 4.31

EPVSLTACPRLLQPL [ABR]
PRISMA enrichment of interactor (log2) (C7orf50, Q9BRJ6): 5.44 | PRISMA enrichment of interactor (log2) (CD81, P60033): 4.25 | PRISMA enrichment of interactor (log2) (CDC20, Q12834): 4.29 | PRISMA enrichment of interactor (log2) (CSTF3, Q12996): 6.08 | PRISMA enrichment of interactor (log2) (DHX15, O43143): 5.81 | PRISMA enrichment of interactor (log2) (EIF3M, Q7L2H7): 4.62 | PRISMA enrichment of interactor (log2) (EIF4B, P23588): 7.01 | PRISMA enrichment of interactor (log2) (EXOC4, Q96A65): 4.18 | PRISMA enrichment of interactor (log2) (GOT2, P00505): 4.54 | PRISMA enrichment of interactor (log2) (INTS7, Q9NVH2): 7.64 | PRISMA enrichment of interactor (log2) (MRM2, Q9UI43): 3.84 | PRISMA enrichment of interactor (log2) (MRPL16, Q9NX20): 4.3 | PRISMA enrichment of interactor (log2) (MYO6, Q9UM54): 4.68 | PRISMA enrichment of interactor (log2) (NAP1L1, P55209): 5.92 | PRISMA enrichment of interactor (log2) (NUDT21, O43809): 4.13 | PRISMA enrichment of interactor (log2) (PGAM1, P18669): 4.58 | PRISMA enrichment of interactor (log2) (RADX, Q6NSI4): 3.65 | PRISMA enrichment of interactor (log2) (S100A13, Q99584): 5.82 | PRISMA enrichment of interactor (log2) (SREK1, Q8WXA9): 6.79 | PRISMA enrichment of interactor (log2) (WDR12, Q9GZL7): 4.04 | PRISMA enrichment of interactor (log2) (YIF1A, O95070): 4.18

PRRAPGGRWRSRRVF [TUG1]
PRISMA enrichment of interactor (log2) (C1QBP, Q07021): 6.14 | PRISMA enrichment of interactor (log2) (MED15, Q96RN5): 4.3 | PRISMA enrichment of interactor (log2) (NAP1L1, P55209): 5.05 ± 0.5 | PRISMA enrichment of interactor (log2) (RPUSD4, Q96CM3): 4.75

RAPRRCRAARAAGGS [RAB12]
PRISMA enrichment of interactor (log2) (C1QBP, Q07021): 6.08 | PRISMA enrichment of interactor (log2) (CCDC77, Q9BR77): 7.53 | PRISMA enrichment of interactor (log2) (CIAO1, O76071): 6.6 | PRISMA enrichment of interactor (log2) (NAP1L1, P55209): 5.19 ± 0.33 | PRISMA enrichment of interactor (log2) (RNF219, Q5W0B1): 4.26
